Article PMC7468199
These are yes or no findings as the source states them, for the method shown.

By UniProt entry, the sequences of proteins in these tests, tags left out.
UniProt A0A0H2ZM82: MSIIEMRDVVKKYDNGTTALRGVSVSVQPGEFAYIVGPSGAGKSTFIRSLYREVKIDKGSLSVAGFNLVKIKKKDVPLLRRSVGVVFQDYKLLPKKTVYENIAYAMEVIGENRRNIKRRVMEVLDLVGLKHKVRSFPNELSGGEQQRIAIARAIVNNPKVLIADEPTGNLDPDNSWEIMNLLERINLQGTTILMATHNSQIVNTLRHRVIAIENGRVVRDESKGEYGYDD

Molecular target: FtsE from Streptococcus pneumoniae (Streptococcus pneumoniae strain R6)
Assay: crystal structure; FtsE at 8 mg/ml with ADP (space groups P 1 and P 2_(1)); 0.15 M sodium acetate, 0.1 M Bis-Tris propane (pH 6.5), 16% PEG3350, 291 K; both purified

binding: no binding (tested: 8 mg/ml)
Substance: FtsE from Streptococcus pneumoniae (from UniProt A0A0H2ZM82 1-230) (enzyme)
